Assay results published in article PMC3383674.
No constants are given. Whether binding was seen depends on the method and setting. In cells and extracts the contact can be indirect. Some binding calls cover weakened binding; strength is not graded here. For some assays here: Sequences can lack the tags named with a protein.

The chains behind the UniProt entries cited, without tags or fusion partners. Where a name states a change or a piece, a line headed by the entry shows the natural chain unless it says otherwise.
UniProt P39940: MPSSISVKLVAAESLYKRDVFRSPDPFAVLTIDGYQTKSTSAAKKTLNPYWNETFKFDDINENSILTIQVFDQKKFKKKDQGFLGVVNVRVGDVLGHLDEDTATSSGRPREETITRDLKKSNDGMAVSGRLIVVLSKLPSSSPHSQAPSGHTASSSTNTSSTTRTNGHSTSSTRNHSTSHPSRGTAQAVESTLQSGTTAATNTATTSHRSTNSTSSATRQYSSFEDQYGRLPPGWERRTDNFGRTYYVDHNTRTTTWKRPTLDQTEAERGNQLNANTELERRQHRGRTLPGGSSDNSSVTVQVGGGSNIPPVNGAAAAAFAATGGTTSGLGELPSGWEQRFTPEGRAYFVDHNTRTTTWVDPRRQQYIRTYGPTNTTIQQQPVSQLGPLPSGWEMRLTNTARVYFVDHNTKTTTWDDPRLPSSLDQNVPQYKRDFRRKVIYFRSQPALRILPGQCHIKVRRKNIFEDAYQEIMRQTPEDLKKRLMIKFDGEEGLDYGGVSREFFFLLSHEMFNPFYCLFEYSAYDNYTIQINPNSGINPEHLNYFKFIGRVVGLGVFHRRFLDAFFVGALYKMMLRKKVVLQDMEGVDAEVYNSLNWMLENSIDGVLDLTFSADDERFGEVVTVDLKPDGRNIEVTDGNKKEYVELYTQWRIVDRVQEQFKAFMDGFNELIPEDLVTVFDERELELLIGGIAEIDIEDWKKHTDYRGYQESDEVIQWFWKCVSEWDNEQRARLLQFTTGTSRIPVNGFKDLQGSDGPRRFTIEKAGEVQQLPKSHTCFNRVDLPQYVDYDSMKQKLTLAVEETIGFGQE
UniProt P53622: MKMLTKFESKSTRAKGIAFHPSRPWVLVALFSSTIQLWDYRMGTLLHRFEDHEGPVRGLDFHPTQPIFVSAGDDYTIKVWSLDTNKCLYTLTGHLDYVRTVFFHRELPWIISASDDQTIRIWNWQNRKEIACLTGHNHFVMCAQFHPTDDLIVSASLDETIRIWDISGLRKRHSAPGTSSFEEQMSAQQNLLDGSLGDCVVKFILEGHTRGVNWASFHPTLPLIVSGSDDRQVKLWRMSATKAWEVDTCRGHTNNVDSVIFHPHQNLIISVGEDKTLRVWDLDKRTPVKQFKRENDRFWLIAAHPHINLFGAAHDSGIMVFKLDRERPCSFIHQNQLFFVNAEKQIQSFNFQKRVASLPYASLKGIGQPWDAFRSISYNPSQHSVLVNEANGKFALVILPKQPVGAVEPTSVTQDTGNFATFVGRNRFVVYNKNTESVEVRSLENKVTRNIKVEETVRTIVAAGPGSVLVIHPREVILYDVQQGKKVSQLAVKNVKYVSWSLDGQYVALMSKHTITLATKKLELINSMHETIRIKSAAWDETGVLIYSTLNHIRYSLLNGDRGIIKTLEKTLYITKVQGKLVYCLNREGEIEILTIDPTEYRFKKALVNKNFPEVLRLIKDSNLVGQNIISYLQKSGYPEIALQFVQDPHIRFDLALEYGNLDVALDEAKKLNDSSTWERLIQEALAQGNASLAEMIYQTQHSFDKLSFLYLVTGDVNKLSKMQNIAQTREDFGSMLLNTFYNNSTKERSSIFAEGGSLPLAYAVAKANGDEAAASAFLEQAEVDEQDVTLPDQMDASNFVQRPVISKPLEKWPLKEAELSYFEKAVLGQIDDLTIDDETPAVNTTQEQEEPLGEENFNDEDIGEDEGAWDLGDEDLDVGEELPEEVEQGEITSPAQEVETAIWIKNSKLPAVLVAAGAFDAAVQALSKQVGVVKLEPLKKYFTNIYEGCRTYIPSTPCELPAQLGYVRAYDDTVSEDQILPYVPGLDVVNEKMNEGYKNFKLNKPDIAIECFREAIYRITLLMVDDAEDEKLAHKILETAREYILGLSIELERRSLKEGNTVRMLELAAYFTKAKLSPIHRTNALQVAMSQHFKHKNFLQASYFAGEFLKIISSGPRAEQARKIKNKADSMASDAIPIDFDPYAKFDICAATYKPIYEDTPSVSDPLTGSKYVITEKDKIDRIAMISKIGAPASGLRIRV

How the values were obtained:
[1] = biological target: T1, HA-tagged Sla1 protein (S. cerevisiae) (UniProt P32790); assay: co-IP; immunoprecipitation with anti-HA antibody (16B12) from yeast protein extracts; total extract and IP fraction analysed by Western blotting with anti-HA and anti-coatomer (anti-COPI) antibody; done as in ref. 32
T1 sequence: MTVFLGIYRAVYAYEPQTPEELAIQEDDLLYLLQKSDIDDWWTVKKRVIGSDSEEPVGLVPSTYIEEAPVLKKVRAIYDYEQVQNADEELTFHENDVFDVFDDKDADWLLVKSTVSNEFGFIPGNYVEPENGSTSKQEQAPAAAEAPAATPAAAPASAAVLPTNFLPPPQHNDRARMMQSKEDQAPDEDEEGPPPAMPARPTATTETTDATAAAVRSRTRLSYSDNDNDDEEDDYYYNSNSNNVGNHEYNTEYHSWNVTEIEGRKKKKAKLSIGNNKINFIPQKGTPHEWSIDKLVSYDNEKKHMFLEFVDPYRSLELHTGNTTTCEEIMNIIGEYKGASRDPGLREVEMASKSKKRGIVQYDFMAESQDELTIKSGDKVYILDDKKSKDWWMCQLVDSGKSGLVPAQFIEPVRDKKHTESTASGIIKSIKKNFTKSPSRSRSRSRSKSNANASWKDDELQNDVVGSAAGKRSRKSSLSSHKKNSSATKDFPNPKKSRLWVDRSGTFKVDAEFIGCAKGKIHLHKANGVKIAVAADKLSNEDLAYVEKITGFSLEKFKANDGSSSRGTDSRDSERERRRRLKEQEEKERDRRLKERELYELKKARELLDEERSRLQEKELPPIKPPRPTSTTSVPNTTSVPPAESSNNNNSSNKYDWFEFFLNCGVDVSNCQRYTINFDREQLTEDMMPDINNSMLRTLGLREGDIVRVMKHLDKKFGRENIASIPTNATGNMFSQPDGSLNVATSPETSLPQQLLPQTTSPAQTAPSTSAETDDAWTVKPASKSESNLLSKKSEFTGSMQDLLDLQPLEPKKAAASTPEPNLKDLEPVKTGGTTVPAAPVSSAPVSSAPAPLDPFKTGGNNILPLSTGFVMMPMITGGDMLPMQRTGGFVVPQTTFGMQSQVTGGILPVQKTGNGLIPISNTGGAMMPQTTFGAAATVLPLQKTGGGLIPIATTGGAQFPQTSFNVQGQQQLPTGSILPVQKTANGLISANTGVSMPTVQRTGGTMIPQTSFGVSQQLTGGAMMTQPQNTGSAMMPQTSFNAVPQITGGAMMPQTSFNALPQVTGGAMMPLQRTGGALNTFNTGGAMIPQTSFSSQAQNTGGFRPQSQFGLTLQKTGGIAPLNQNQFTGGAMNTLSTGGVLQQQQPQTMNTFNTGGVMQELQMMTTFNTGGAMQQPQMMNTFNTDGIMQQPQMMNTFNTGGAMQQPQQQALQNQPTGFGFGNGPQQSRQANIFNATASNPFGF

[2] = biological target: HA-tagged Rsp5 ubiquitin ligase (S. cerevisiae) (UniProt P39940); assay: as above

COPI complex (coatomer) (from UniProt P53622 1-1201; P41811 1-889; P40509 1-296; P32074 1-935; P41810 1-973; P53600 1-189; P43621 1-546)
binding [1]: binds
binding [2]: binds
